Here are results for one compound from patent US20180194822A1, “DISRUPTION OF THE INTERACTION BETWEEN AMYLOID BETA PEPTIDE AND DIETARY LIPIDS” (THE TRUSTEES OF COLUMBIA UNIVERSITY IN THE CITY OF NEW YORK, priority 2015, published 2018).

The chains behind the UniProt entries cited, without tags or fusion partners. Residues count along the entry.
UniProt P05067, 672-713 limits assumed: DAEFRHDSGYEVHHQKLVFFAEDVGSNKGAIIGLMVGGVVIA

The match of structure and compound is tentative.

Assay [1] has as its target Aβ42 peptide fluorescently tagged with FAM (Homo sapiens, UniProt P05067). The assay is described as follows: Lipid binding assay: Aβ42-FAM on lipid-coated maleic anhydride plates. As to conditions: for di18:0: concentrations 10,000 pmol/well and below.
Assay [2] deals with Aβ:ApoE:lipid binding complex (Homo sapiens, UniProt P05067). Description: ApoE binding assay: fluorescent Aβ42 on ApoE-coated plates in presence of lipid. As to conditions: increasing lipid concentration, background without ApoE subtracted.

In the case of `CC/C=C\C/C=C\C/C=C\C/C=C\C/C=C\C/C=C\CCC(=O)O[C@H](COC(=O)CCCCCCCCCCCCCCCCC)COP(=O)(O)OCCN`, the “binding of Aβ42-FAM to plate-bound lipid” value in assay [1] is “saturable one-site binding”. In addition, the “Aβ-Hilyte binding to ApoE in presence of lipid” value in assay [2] was “bound ApoE”.
